Reference: PMC7819943, “Rice protein-binding microarrays: a tool to detect cis-acting elements near promoter regions in rice”
Some of the results follow.

By UniProt entry, the sequences of proteins in these tests, tags left out.
UniProt Q0JBA9, entry or part of it: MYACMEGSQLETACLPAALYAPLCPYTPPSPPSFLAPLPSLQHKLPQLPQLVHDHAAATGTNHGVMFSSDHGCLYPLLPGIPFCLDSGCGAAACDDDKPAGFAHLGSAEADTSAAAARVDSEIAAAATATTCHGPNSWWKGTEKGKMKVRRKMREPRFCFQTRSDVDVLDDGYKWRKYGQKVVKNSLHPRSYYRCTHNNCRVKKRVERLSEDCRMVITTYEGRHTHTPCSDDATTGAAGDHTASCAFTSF

These sequences were tested against OsWRKY34 (Oryza sativa, UniProt Q0JBA9 1-250) (assay: protein-binding microarray (RPBM); PBS, 2% BSA, 51.3 ng/ul salmon testes DNA, 50 uM zinc acetate, 200 nM TF, 25 C, 1 h; high values mean tight binding). Conditions: protein: recombinant; tags: N-terminal polyhistidine and DsRed monomer fusion (pET32a); label: CyDye5-dUTP incorporated in the synthesized complementary strand; 3' TTTTT single-stranded linker to array surface; dsDNA, one strand shown.
Outline: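 A custom Agilent array was converted to double-stranded form by primer extension with Cy5-dUTP and blocked with 2% BSA. Protein at 200 nM in PBS with 2% BSA, salmon testes DNA and 50 µM zinc acetate was applied for 1 h at 25 °C, followed by washing. The proteins were polyhistidine–DsRed N-terminal fusions of transcription factors, expressed in E. coli BL21-CodonPlus and Ni–NTA-purified. The binding signal is per-feature fluorescence intensity (arbitrary units) from an Axon 4000B scanner.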

Sequence	binding signal
TCGGTCTATTTATGCTCATAAACCATGGTCTCTTGTTTTTCGGAGTCACCTAGTGCAG	12600 fluorescence intensity (a.u.)
AACATATATGCGGCATCCTTACTTAACAATCGGTCACAATCGGAGTCACCTAGTGCAG	8740 fluorescence intensity (a.u.)
CTTAACTTTGCACAAAACTGGCCAGCACGAAGATCAAAGCCGGAGTCACCTAGTGCAG	8220 fluorescence intensity (a.u.)
CGTTTTCGAAGATATGATACCGACTCCGACCGTTTTCATCCGGAGTCACCTAGTGCAG	8320 fluorescence intensity (a.u.)
TTTACCTTCATCATTTTGGGCTTGTATATATTGTACAATTCGGAGTCACCTAGTGCAG	9190 fluorescence intensity (a.u.)
GCCGCCTCCCTTCTCGCAGCTCTGGTGACGCCTCCTGTCTCGGAGTCACCTAGTGCAG	8150 fluorescence intensity (a.u.)
GCATGCAAATATTATCACCGGTCTACCATTATCTATAAAACGGAGTCACCTAGTGCAG	8030 fluorescence intensity (a.u.)
TATGTATTAGTGTGTATGTGTTAAGGGGTATTTCTGTCTTCGGAGTCACCTAGTGCAG	13900 fluorescence intensity (a.u.)
ATCTTTTATGCTTGGTCCTATCTGTACTACTCGTGTGTTTCGGAGTCACCTAGTGCAG	11000 fluorescence intensity (a.u.)
AGGTTTGCTCCCATACTTCTTTTGCATTTGTACTAATATACGGAGTCACCTAGTGCAG	10800 fluorescence intensity (a.u.)
CAAACTTGGTCAAACTTAAAACAGTTTGACTTTGATCAAACGGAGTCACCTAGTGCAG	9260 fluorescence intensity (a.u.)
ATTTCCGCTTCGACGCCATTGTTGCAACCTCTCTTGCCGCCGGAGTCACCTAGTGCAG	10100 fluorescence intensity (a.u.)
GGCGGTGAGGGAGGCGGGCAGGATGAAGAAGAAGAAGAAGCGGAGTCACCTAGTGCAG	10900 fluorescence intensity (a.u.)
CGTCTCCATCCTCCGCTCTCGTCCCCGGCGCCGCCACCACCGGAGTCACCTAGTGCAG	8860 fluorescence intensity (a.u.)
ACGTATCAGCCGCACTCGTCGTGCGCACGCCGTCTCGCCGCGGAGTCACCTAGTGCAG	8550 fluorescence intensity (a.u.)
TCCACCTTCTAACCGCTTCCTTGCTTGCTGCCATAAGCCGCGGAGTCACCTAGTGCAG	8300 fluorescence intensity (a.u.)
AATCCAAAACAGCCCCATGTTTACACTCTACAGTCCCCTACGGAGTCACCTAGTGCAG	8340 fluorescence intensity (a.u.)
GTGCGTGTAAACTTTTTTGGGGTTGTTTTGGGCGGTTACTCGGAGTCACCTAGTGCAG	18200 fluorescence intensity (a.u.)
CGTACACAACAATAGTCTCTCTTTGTCCATATGACGTATCCGGAGTCACCTAGTGCAG	9260 fluorescence intensity (a.u.)
TACCTCTCTCTCTCTCTCGCCTCCCTGCGCTCTCTTGTGTCGGAGTCACCTAGTGCAG	8520 fluorescence intensity (a.u.)
CCACGCCACATCCCTAAACTTCTCCATCTCCATAGTACTCCGGAGTCACCTAGTGCAG	9680 fluorescence intensity (a.u.)

Sequence	binding signal
AGGCCCGACGCCGTGCTTGCATTCCTCGCCGAAGAGCTCGCGGAGTCACCTAGTGCAG	8770 fluorescence intensity (a.u.)
AGGGTAGACAGGGATACAGGATGGGAATCATAATATAGATCGGAGTCACCTAGTGCAG	8040 fluorescence intensity (a.u.)
ACCTTCTTCTTCGTCCAACATGGTTCATCGCCAGCGTCGTCGGAGTCACCTAGTGCAG	11900 fluorescence intensity (a.u.)
TAATGGTTCTGCGGCTTGGACTTCTCTCTCTCTCTCGTTTCGGAGTCACCTAGTGCAG	11600 fluorescence intensity (a.u.)
GAAACATGGTTGGTTTTGTCCTTGTCGTGGCTACTCCAAGCGGAGTCACCTAGTGCAG	11200 fluorescence intensity (a.u.)
AATTTCTTAGCACATGTTTGACTGTTCGTCTTATTAAAAACGGAGTCACCTAGTGCAG	9430 fluorescence intensity (a.u.)
ACATATATAACCACTCTATCTATTGCATATAACATAAGTTCGGAGTCACCTAGTGCAG	8580 fluorescence intensity (a.u.)
CGTCCTTATTGTGGTTTTCCACGTGTTTGTCTCTGTGTTTCGGAGTCACCTAGTGCAG	13300 fluorescence intensity (a.u.)
TTCCTGCGGCCCAATCAAACGGTCATTCCTATGTCTTTTTCGGAGTCACCTAGTGCAG	8600 fluorescence intensity (a.u.)
TTTCGTCTTGCTGCGGCGGGGAGGGTGGTGAAGCGAAAGTCGGAGTCACCTAGTGCAG	16000 fluorescence intensity (a.u.)
ATATCTGTCCTAGTTTGTTTCAATCTCAATATACTGTAATCGGAGTCACCTAGTGCAG	8230 fluorescence intensity (a.u.)
TGTATGTGTGGTGTGTGTTCATGTGCATCCTGAATTTTACCGGAGTCACCTAGTGCAG	14200 fluorescence intensity (a.u.)
GTCCGGCCCACCCACCACCCCGGCGGCGGCGGCGGCCATGCGGAGTCACCTAGTGCAG	9290 fluorescence intensity (a.u.)
GCTCAGATTCTTCCCGTGGGCTATTTTTACCACCCGCATCCGGAGTCACCTAGTGCAG	9410 fluorescence intensity (a.u.)
TCGCTCTGTACTTTACACGTTGGTTCCTTTTGTATGTGATCGGAGTCACCTAGTGCAG	8390 fluorescence intensity (a.u.)
TATGTGTCATCAATACTATCTTATTTTTACTCTCACACTCCGGAGTCACCTAGTGCAG	8230 fluorescence intensity (a.u.)
AACGTACACCACATCCCTTTCCCGTTAACTTGGGCCATGCCGGAGTCACCTAGTGCAG	10700 fluorescence intensity (a.u.)
TCTTTCAGTTTTTTTTTTCCCGTCCCCTTTCCTCTCGTTTCGGAGTCACCTAGTGCAG	10300 fluorescence intensity (a.u.)
GGCCTCGTCTCCTACCTCGCCGACCCCGACCCCGACCACGCGGAGTCACCTAGTGCAG	8440 fluorescence intensity (a.u.)
CTCATCCGATTCCTGCGTTTTTCCTGCGCTCCAATCAAACCGGAGTCACCTAGTGCAG	9990 fluorescence intensity (a.u.)
TCATGTCCGAAAACTCCTTTCGACATCTGGTCAAACATCCCGGAGTCACCTAGTGCAG	8100 fluorescence intensity (a.u.)

As a working copy, part of the list above.
Sequence	binding signal
GGCCTCGTCTCCTACCTCGCCGACCCCGACCCCGACCACGCGGAGTCACCTAGTGCAG	8440 fluorescence intensity (a.u.)
CTCATCCGATTCCTGCGTTTTTCCTGCGCTCCAATCAAACCGGAGTCACCTAGTGCAG	9990 fluorescence intensity (a.u.)
